Reference: paper PMC5061317, “Transactivation Assays to Assess Canine and Rodent Pregnane X Receptor (PXR) and Constitutive Androstane Receptor (CAR) Activation” (PLoS ONE, 2016)

Legend:
rat CAR3 [1] = target: T1, rat CAR3 (Rattus norvegicus, UniProt Q9QUS1, INS280APYLT); experiment: Rat CAR3 transactivation assay with CYP3A4 promoter/enhancer reporter (rCAR3/3A4)
T1 sequence (Q9QUS1 with tags, fused parts or gaps INS280APYLT): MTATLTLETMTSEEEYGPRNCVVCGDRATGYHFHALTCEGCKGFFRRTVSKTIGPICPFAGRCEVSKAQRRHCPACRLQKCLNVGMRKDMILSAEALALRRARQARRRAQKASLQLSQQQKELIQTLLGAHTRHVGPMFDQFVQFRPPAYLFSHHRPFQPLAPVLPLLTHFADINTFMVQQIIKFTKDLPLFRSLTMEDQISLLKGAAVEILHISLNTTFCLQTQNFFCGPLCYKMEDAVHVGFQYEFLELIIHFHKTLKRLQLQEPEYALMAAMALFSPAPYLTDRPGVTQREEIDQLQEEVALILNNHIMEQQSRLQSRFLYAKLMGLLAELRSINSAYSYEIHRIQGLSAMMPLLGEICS
T1 sequence (P19793 1-462 partner): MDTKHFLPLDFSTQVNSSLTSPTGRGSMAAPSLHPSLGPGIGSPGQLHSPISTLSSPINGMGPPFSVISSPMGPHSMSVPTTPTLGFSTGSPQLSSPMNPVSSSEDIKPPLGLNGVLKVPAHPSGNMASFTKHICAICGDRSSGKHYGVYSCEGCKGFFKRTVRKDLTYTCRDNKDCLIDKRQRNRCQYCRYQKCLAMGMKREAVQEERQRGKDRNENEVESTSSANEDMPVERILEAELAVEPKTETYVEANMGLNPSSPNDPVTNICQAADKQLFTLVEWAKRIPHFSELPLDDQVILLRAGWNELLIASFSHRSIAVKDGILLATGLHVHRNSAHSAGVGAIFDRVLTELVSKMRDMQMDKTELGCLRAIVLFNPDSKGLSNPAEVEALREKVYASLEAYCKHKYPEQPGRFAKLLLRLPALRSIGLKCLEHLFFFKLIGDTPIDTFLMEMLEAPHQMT
Method: (§1) To construct an expression vector harboring canine CAR3, reference CAR sequence (CAR1) for canine (Accession number: FJ202015) was amplified from C. familiaris liver cDNA. PCR conditions were 98°C for 2 min, 30 cycles of 98°C for 30 sec and 72°C for 1 min, followed by 72°C for 7 min and cooling to 4°C. The resulting PCR product was cloned into the pCR2.1 vector for sequence analysis and subsequently cloned into a pCDNA 3.1 expression vector (Life Technologies, Carlsbad, CA). […] Canine CAR1 was mutated to obtain CAR3 by introducing […] motif. This was performed using forward primer: 5’- […] -3’ and reverse primer: 5’- […] -3’ in concert with QuikChange Lightning mutagenesis kit (Agilent) according to manufacturer’s instructions. The presence of correct canine CAR3 was verified by sequence analysis. […]
(§2) Assessment of cell viability and transcriptional activation was performed in the same wells using the CellTiter-Fluor cell viability assay and ONE-Glo Luciferase assay. Fluorescence was determined on a BioTek Synergy 2 Luminometer (BioTek Instruments, Winooski, VT) with excitation at 400 nm and emission at 510 nm. Following viability determination luminescence was monitored.
(§3) Fluorescent light units were utilized to normalize for viable cell number in the luciferase (transcriptional activation) assay and expressed as the average of three determinations/chemical agent and concentration. […]

rat CAR3 [2] = target: T1, rat CAR3; experiment: Rat CAR3 transactivation assay with CYP2B6 promoter/enhancer reporter (rCAR3/2B6); type: cell-based; set-up: expressed in transfected cells; host or cells: HepG2 (transient transfection); conditions: dose-response 0.01 μM to 20 μM, 48 h; read-out: EC50, rCAR3/2B6 activation
Method: as §1, §2, §3

Clc1ccccc1C(c1ccccc1)(c1ccccc1)n1ccnc1 [Clotrimazole]
EC50 (rat CAR3 [1]): 4100 nM
EC50 (rat CAR3 [2]): 1400 nM
